Laboratory results published in publication PMC12241546, “PRELP functions via multiple interactions with intrinsically weak affinity relying on ECM anchoring and remodeling” (Scientific Reports, 2025).
Results are given in words; binding and its absence hold for the method and conditions named. Some results given as binding are weak or reduced against the parent protein; the word gives no strength.

The chains behind the UniProt entries cited, without tags or fusion partners. Residues count along the entry.
UniProt P01137, residues 279-390: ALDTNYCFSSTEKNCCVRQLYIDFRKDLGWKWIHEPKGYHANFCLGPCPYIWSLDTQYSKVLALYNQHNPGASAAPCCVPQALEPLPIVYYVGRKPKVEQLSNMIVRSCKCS
UniProt Q05793, residues 22-3707: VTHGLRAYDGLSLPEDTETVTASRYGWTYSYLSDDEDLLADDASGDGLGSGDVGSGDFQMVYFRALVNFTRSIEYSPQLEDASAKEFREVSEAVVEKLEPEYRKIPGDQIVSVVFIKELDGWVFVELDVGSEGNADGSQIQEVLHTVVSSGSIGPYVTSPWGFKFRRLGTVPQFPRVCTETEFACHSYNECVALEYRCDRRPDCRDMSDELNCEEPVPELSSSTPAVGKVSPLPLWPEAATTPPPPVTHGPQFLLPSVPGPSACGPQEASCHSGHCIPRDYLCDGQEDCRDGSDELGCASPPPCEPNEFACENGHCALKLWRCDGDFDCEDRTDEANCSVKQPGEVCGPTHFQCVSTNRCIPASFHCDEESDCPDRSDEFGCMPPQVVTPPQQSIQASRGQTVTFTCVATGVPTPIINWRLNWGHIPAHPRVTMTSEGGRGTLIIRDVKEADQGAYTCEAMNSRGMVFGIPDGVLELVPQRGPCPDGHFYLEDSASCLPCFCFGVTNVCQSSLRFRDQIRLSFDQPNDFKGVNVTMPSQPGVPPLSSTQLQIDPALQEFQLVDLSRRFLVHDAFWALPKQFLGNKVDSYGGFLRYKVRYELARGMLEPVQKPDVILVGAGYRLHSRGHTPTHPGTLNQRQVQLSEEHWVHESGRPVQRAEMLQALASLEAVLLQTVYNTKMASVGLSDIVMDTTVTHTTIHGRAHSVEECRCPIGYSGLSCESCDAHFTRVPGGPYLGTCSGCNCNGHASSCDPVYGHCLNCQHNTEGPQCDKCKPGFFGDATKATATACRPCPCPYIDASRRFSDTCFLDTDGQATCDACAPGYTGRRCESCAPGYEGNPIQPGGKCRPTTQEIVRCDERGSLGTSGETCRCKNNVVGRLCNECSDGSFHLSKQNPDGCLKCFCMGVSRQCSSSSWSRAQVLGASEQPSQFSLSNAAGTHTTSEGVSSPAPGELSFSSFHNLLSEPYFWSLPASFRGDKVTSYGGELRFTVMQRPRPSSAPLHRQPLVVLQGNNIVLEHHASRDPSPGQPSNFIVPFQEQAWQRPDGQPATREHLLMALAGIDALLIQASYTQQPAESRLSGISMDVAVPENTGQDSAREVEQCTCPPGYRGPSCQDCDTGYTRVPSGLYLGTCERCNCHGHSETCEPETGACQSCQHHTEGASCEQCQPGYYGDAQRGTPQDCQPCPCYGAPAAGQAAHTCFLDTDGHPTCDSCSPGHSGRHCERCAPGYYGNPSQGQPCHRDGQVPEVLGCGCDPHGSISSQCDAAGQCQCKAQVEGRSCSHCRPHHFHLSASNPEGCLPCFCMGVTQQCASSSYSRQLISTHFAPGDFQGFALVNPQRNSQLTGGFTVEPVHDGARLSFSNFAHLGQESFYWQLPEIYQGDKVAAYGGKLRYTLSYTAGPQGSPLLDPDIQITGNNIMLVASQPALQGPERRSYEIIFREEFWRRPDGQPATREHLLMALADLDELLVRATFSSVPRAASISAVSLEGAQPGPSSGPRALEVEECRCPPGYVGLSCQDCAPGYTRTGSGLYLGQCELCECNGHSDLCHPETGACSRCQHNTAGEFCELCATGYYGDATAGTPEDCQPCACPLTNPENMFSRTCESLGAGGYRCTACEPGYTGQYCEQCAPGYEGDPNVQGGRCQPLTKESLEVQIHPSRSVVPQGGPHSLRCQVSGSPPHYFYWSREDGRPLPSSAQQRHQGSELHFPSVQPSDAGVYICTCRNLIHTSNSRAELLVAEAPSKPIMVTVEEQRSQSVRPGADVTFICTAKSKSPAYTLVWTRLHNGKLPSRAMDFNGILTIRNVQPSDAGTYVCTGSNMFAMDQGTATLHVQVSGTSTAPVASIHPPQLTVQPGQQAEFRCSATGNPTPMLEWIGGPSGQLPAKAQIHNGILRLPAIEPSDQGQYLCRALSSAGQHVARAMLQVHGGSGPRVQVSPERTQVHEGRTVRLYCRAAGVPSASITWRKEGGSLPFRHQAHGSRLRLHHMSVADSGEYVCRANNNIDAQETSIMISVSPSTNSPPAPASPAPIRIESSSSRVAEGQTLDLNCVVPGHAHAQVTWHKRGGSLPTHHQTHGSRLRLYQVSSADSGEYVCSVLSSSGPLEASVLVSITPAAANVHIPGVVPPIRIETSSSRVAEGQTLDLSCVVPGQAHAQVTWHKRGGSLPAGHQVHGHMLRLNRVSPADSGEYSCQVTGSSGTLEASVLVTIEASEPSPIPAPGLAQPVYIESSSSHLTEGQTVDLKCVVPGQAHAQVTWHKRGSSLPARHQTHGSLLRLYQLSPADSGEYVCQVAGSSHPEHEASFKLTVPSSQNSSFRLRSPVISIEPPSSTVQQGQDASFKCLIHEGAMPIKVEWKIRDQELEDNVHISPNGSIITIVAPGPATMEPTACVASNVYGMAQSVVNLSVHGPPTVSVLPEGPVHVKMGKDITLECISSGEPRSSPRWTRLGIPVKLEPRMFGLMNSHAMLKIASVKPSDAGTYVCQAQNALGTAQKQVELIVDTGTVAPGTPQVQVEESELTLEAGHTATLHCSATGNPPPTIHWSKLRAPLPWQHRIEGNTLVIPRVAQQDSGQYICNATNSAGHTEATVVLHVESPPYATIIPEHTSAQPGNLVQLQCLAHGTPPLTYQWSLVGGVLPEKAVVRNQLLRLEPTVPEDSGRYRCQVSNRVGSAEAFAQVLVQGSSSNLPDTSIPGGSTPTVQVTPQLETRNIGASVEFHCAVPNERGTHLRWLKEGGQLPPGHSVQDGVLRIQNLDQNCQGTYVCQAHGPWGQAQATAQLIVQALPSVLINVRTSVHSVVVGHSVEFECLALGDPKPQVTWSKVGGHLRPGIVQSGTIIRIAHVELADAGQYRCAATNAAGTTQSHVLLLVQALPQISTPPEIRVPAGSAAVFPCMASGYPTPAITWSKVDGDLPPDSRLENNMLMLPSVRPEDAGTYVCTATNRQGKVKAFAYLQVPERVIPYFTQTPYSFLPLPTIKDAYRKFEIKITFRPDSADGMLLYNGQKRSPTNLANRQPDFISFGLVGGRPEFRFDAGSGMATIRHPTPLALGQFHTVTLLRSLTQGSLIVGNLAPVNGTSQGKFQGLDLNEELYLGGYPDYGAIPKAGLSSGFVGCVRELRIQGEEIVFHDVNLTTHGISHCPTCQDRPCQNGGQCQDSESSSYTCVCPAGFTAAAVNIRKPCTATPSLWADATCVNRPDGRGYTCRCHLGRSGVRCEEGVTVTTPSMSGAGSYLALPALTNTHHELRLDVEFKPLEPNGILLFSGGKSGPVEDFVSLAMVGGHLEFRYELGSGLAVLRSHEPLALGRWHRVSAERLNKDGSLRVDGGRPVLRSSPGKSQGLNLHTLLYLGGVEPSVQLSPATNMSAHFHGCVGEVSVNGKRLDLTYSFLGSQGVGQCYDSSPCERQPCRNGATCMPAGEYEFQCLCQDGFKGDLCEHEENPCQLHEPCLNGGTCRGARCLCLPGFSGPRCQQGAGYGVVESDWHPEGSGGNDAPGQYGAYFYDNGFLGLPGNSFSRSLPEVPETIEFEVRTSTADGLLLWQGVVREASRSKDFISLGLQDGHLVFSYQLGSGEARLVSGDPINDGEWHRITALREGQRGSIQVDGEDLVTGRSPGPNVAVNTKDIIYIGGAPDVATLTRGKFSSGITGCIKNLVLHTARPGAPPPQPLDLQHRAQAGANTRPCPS

Tests used:
[1] = biological target: Recombinant mature TGFβ1 dimer (transforming growth factor β1) (human) (UniProt P01137); assay: SPR; p75NTR with TGFβ1 (Supplementary Fig. S13); who was immobilised is not stated; both purified
[2] = biological target: mouse perlecan (mouse) (UniProt Q05793); assay: ELISA; wells coated with fibronectin (5 µg/mL), perlecan (1 µg/mL) or collagen (5 µg/mL) in PBS; a range of concentrations of full-length PRELP in 10 mM HEPES pH 7.5, 150 mM NaCl, 0.05% Tween-20, room temperature, 1 h; detected with anti-DDDDK-tag mAb HRP; both purified

Row | binding [1] | binding [2] | Binder
1 | binds weakly |  | Recombinant extracellular domain of human p75NTR (low-affinity nerve growth factor receptor) (receptor, UniProt P08138 29-189, looked up, also called p75NTR ectodomain; source: Sf9 cells, purified from the culture supernatant (Ni-NTA, SEC)) KEACPTGLYTHSGECCKACNLGEGVAQPCGANQTVCEPCLDSVTFSDVVSATEPCKPCTECVGLQSMSAPCVEADDAVCRCAYGYYQDETTGRCEACRVCEAGSGLVFSCQDKQNTVCEECPDGTYSDEANHVDPCLPCTVCEDTERQLRECTRWADAECE
2 |  | binds | Recombinant human full-length PRELP (proline/arginine-rich end leucine-rich repeat protein) (natural protein, UniProt P51888 21-382, looked up, human PRELP, amino acid residues 21-382 (Uniprot numbering); source: Mimic Sf9 cells, purified from the supernatant (DDDDK-tagged Protein Purification Gel, Benzonase, SEC); not shown: FLAG, C-terminal, kept) QPTRRPRPGTGPGRRPRPRPRPTPSFPQPDEPAEPTDLPPPLPPGPPSIFPDCPRECYCPPDFPSALYCDSRNLRKVPVIPPRIHYLYLQNNFITELPVESFQNATGLRWINLDNNRIRKIDQRVLEKLPGLVFLYMEKNQLEEVPSALPRNLEQLRLSQNHISRIPPGVFSKLENLLLLDLQHNRLSDGVFKPDTFHGLKNLMQLNLAHNILRKMPPRVPTAIHQLYLDSNKIETIPNGYFKSFPNLAFIRLNYNKLTDRGLPKNSFNISNLLVLHLSHNRISSVPAINNRLEHLYLNNNSIEKINGTQICPNDLVAFHDFSSDLENVPHLRYLRLDGNYLKPPIPLDLMMCFRLLQSVVI
